Some of the results follow.
Tests used:
Assay in all cases: log2 fold change, soluble protein after heating vs DMSO (PISA); higher = thermal stabilisation; K562 lysate, 10 uM; active = over 0.2 and 3.5 SD of the protein, either way, in both replicates (recomputed)
[1] = compound: C1=CC=C(C=C1)[C@H](COC2=CC3=C(C=C2)NC(=O)N3)NC(=O)C4=CC=CN(C4=O)CC5=CC(=C(C=C5)F)F
Outline: (§1)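 Log-two fold change in thermal stability relative to solvent controls is reported from duplicates. For each sample, crude K562 extract from dounce-homogenised pellets in PBS pH 7.4 with 1 mM MgCl2, at 1 mg/mL protein, was treated with 10 μM compound for 30 min. Aliquots heated for 3 min across 48°C-58°C were pooled, brought to 0.5% NP-40 at 4°C and cleared at 21,000xg for 90 min. The supernatant was quantified by TMTpro 16plex LC-MS/MS with channel sums equalised.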

Sequences of proteins named here, by UniProt entry; tags and fusion partners are left off. A change or cut given only in a name is not applied to a line headed by its entry.
UniProt Q9NW15: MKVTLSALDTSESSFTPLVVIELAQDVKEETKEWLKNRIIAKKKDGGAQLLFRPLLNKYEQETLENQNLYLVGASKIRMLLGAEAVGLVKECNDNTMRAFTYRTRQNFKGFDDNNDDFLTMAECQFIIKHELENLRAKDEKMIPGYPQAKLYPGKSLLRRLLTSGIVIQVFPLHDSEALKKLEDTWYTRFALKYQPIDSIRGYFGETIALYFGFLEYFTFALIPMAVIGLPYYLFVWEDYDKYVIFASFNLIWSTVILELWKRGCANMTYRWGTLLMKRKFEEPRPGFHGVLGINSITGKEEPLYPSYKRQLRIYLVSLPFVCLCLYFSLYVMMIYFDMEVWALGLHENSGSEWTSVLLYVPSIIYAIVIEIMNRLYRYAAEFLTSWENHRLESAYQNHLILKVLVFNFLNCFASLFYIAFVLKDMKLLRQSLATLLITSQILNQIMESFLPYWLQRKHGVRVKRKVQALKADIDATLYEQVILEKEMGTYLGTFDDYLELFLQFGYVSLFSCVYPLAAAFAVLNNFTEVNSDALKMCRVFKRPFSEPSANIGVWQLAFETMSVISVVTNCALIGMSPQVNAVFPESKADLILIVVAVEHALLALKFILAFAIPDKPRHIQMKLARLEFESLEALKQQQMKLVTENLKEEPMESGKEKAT
UniProt Q92685: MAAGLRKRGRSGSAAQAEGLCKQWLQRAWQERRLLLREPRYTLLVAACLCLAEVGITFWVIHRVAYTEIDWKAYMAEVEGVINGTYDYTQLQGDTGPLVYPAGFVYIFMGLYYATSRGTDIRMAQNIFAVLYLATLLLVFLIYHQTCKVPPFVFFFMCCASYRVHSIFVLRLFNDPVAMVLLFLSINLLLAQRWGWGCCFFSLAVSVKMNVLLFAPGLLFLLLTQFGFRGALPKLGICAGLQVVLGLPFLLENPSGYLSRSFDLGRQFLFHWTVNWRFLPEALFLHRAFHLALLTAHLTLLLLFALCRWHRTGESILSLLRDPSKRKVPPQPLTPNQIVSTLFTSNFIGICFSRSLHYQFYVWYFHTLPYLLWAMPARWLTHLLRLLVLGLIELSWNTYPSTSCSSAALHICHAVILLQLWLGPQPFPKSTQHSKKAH
UniProt P61966: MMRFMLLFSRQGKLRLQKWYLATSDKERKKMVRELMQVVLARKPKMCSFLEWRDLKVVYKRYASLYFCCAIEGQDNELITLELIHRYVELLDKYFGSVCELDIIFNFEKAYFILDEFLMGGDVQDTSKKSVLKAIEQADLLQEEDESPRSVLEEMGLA
UniProt Q9Y2T2: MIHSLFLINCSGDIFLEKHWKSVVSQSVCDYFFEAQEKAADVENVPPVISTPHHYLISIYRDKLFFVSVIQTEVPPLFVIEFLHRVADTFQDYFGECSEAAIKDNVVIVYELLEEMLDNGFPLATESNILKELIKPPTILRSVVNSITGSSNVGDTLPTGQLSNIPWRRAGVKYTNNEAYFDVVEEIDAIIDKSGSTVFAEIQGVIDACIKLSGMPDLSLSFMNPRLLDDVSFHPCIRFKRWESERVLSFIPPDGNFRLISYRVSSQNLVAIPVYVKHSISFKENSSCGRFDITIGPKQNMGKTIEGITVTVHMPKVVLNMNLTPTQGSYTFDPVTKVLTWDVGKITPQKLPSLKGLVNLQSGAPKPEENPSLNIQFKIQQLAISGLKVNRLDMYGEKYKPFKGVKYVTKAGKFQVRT
UniProt Q9BT22: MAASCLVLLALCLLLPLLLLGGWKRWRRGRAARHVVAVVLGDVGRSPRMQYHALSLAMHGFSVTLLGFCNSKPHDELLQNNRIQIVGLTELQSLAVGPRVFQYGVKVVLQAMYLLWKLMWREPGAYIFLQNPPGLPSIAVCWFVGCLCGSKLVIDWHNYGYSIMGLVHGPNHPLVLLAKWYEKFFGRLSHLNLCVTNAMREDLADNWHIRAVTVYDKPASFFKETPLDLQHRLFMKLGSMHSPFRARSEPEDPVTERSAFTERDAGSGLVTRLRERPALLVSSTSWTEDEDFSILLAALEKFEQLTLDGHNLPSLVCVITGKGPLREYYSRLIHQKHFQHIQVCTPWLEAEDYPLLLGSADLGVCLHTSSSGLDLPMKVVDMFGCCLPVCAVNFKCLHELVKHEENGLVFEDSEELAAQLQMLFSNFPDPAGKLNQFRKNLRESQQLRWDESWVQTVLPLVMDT
UniProt P49189: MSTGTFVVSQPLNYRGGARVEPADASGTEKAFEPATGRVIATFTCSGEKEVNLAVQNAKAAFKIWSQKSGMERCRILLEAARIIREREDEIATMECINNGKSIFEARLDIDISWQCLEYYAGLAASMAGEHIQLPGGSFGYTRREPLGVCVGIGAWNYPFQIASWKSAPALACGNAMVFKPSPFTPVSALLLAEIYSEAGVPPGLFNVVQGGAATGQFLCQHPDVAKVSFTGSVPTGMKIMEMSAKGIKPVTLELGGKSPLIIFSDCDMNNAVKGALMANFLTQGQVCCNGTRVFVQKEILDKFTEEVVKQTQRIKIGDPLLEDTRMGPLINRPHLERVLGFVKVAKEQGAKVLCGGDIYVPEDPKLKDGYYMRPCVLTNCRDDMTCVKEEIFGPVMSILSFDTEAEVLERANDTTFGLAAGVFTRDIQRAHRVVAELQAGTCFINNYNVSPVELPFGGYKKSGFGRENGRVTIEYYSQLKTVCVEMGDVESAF
UniProt Q9NQW6: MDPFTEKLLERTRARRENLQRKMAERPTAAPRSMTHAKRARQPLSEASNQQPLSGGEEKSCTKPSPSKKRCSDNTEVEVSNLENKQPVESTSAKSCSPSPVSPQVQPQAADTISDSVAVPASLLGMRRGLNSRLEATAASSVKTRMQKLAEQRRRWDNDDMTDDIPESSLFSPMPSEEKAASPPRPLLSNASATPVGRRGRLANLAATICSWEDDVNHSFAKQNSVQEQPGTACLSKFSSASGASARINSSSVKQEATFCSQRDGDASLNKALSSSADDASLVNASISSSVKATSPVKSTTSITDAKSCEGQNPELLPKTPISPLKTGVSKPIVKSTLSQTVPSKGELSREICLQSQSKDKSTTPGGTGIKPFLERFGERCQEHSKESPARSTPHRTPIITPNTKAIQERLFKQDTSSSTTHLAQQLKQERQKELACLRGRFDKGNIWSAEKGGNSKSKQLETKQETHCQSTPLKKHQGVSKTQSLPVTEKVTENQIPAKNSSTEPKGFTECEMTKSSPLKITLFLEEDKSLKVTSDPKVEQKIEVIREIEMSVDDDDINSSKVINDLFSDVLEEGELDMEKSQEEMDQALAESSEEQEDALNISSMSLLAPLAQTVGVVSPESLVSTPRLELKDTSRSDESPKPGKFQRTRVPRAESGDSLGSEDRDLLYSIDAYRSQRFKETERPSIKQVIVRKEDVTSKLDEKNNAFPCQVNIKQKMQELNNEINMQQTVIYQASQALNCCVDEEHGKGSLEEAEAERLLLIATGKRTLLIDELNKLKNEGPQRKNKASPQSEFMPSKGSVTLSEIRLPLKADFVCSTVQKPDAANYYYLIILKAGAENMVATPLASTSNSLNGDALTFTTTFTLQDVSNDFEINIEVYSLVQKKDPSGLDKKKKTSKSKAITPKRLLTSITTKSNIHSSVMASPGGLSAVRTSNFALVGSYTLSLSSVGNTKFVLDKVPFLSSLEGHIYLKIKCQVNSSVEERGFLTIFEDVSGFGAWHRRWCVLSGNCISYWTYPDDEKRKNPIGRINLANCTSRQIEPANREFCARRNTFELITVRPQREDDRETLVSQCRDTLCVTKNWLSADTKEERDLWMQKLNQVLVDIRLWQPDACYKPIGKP
UniProt Q6AI12: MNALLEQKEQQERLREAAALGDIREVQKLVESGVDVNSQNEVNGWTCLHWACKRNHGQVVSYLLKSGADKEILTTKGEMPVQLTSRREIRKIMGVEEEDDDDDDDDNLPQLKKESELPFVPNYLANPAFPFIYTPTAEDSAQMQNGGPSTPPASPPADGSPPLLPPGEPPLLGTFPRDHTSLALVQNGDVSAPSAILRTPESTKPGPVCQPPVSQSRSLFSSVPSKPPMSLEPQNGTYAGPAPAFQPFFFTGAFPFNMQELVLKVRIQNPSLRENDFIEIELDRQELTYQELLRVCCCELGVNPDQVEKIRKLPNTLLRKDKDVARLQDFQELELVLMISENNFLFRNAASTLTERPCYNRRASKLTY
UniProt Q13367: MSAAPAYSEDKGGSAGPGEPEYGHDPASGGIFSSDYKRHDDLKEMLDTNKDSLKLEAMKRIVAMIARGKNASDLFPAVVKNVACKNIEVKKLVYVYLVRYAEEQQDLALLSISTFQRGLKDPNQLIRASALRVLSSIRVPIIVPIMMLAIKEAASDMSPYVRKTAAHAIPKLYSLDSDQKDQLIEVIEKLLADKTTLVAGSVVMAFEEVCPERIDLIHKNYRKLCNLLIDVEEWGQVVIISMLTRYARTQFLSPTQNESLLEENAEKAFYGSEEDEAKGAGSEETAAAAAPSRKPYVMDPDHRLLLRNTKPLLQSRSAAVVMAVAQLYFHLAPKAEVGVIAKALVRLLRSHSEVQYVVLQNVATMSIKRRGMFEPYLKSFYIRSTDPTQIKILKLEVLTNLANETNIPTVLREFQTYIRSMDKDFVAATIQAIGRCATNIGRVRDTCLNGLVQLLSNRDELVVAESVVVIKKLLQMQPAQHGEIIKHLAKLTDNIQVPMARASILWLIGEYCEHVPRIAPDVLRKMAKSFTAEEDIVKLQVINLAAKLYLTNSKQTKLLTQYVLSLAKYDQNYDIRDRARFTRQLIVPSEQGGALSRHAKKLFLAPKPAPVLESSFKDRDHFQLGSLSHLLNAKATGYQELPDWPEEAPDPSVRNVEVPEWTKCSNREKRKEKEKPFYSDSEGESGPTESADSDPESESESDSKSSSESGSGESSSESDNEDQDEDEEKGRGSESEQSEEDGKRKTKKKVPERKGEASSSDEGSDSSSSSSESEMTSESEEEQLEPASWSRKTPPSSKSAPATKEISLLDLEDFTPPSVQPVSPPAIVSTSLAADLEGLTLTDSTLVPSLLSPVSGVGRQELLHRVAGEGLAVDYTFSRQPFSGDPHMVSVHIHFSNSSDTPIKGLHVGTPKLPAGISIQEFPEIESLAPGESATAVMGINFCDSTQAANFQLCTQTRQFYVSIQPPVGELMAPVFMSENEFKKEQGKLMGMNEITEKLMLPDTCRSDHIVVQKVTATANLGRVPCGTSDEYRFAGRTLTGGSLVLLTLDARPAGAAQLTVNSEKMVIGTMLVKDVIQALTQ
UniProt Q9BXX2: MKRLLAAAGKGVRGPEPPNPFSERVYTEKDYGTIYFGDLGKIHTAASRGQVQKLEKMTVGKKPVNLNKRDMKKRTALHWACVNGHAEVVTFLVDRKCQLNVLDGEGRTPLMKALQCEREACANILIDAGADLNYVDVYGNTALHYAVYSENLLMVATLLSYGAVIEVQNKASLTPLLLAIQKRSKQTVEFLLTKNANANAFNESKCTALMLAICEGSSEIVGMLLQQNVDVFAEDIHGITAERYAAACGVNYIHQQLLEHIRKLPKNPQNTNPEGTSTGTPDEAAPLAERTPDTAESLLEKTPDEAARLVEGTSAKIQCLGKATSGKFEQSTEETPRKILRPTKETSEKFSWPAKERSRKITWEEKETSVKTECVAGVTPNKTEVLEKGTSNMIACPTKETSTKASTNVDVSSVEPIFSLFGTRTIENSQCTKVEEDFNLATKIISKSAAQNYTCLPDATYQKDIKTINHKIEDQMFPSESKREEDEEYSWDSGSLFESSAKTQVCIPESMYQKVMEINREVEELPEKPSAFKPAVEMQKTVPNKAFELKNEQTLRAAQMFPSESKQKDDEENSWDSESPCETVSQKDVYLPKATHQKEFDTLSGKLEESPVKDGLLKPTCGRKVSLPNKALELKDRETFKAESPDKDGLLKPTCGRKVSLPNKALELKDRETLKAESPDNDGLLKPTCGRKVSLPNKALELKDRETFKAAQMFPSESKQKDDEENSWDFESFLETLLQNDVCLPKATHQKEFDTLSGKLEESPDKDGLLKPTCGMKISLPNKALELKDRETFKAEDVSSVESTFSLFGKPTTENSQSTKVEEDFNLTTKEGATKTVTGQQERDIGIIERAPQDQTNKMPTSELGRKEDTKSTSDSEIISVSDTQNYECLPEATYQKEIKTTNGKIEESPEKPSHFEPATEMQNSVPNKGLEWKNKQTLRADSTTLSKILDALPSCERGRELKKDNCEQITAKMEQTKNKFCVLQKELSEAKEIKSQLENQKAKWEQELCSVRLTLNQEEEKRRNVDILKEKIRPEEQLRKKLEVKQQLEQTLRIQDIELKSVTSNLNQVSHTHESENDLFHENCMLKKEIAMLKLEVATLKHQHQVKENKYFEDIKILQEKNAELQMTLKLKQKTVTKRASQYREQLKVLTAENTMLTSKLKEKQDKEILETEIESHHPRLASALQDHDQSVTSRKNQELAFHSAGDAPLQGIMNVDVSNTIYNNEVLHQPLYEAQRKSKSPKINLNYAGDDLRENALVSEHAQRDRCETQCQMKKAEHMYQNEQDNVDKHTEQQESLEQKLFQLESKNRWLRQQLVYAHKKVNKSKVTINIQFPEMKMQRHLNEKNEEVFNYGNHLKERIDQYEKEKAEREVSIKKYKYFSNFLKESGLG

[2] = compound: CC1=C(SC2=C1C(=N[C@H](C3=NN=C(N32)C)CC(=O)N)C4=CC=C(C=C4)Cl)C
Outline: as §1

[3] = compound: CC1=C2C(=CC=C1)N=C(N(C2=O)C3=CC=CC=C3C)CN4C=NC5=C(N=CN=C54)N
Outline: as §1

[4] = compound: Cc1sc2c(c1C)C(c1ccc(Cl)cc1)=N[C@@H](CC(=O)OC(C)(C)C)c1nnc(C)n1-2
Outline: as §1

[5] = compound: c1ccc([C@@H]2C[C@H]2NC2CCNCC2)cc1
Outline: as §1

Measured: log2 fold change

ALDH16A1 (UniProt Q8IZ83)
inactive: [1] 0.015 | [2] -0.029 | [3] 0.007 | [4] 0.018 | [5] -0.072

ANXA11 (UniProt P50995)
inactive: [2] 0.028 | [3] 0.015 | [4] 0.015 | [5] 0.002
active: [1] 0.23

ANO10 (UniProt Q9NW15)
inactive: [1] 0.011 | [2] 0.017 | [3] 0.03 | [4] 0.006 | [5] 0.014

ALG3 (UniProt Q92685)
inactive: [1] 0.002 | [2] -0.006 | [3] 0.048 | [4] -0.035 | [5] -0.127

AP1G2 (UniProt O75843)
inactive: [1] 0.082 | [2] -0.09 | [3] 0.016 | [4] 0.028 | [5] -0.099

ANKS3 (UniProt Q6ZW76)
inactive: [1] 0.165 | [2] -0.17 | [3] 0.007 | [4] -0.23 | [5] -0.054

ANKRD28 (UniProt O15084)
inactive: [1] 0.009 | [2] -0.018 | [3] 0.01 | [4] -0.003 | [5] -0.027

ANKS1A (UniProt Q92625)
inactive: [1] -0.022 | [2] -0.005 | [3] 0.011 | [4] 0.016 | [5] -0.055

AP1S1 (UniProt P61966)
inactive: [1] 0.006 | [2] -0.013 | [3] 0.001 | [4] 0.079 | [5] 0.06

Looked up one by one from the entries so far, 3 records:
ANKRD28 (UniProt O15084)
inactive: [1] 0.009 | [2] -0.018 | [3] 0.01 | [4] -0.003 | [5] -0.027

ANKS3 (UniProt Q6ZW76)
inactive: [1] 0.165 | [2] -0.17 | [3] 0.007 | [4] -0.23 | [5] -0.054

AP1G2 (UniProt O75843)
inactive: [1] 0.082 | [2] -0.09 | [3] 0.016 | [4] 0.028 | [5] -0.099

Following part:

ALS2 (UniProt Q96Q42)
inactive: [1] -0.036 | [2] 0.042 | [3] 0.081 | [4] -0.043 | [5] 0.056

AP3M1 (UniProt Q9Y2T2)
inactive: [1] 0.006 | [2] 0.008 | [3] 0 | [4] 0.02 | [5] 0

ANAPC7 (UniProt Q9UJX3)
inactive: [1] -0.008 | [2] -0.003 | [3] -0.002 | [4] 0.023 | [5] 0.048

ANGEL2 (UniProt Q5VTE6)
inactive: [1] 0.101 | [2] 0.02 | [3] 0.088 | [4] -0.001 | [5] -0.029

ANXA2 isoform 2 (UniProt P07355)
inactive: [1] 0 | [2] -0.005 | [3] -0.019 | [4] 0.024 | [5] 0.02

ALDH2 (UniProt P05091)
inactive: [1] 0.029 | [2] -0.028 | [3] -0.022 | [4] -0.018 | [5] 0.01

ALDOA (UniProt P04075)
inactive: [1] 0.027 | [2] 0.001 | [3] -0.037 | [4] -0.021 | [5] -0.037

ALDH1L2 (UniProt Q3SY69)
inactive: [1] 0.015 | [2] 0.041 | [3] 0.052 | [4] -0.009 | [5] -0.023

ALG1 (UniProt Q9BT22)
inactive: [1] -0.03 | [2] -0.026 | [3] 0.076 | [4] 0.003 | [5] 0.175

ANKRD26 (UniProt Q9UPS8)
inactive: [1] -0.056 | [2] -0.001 | [3] 0.103

ANO6 (UniProt Q4KMQ2)
inactive: [1] 0.006 | [2] 0.023 | [3] -0.035 | [4] -0.02 | [5] -0.012

ANKRD13C (UniProt Q8N6S4)
inactive: [1] -0.218 | [2] 0.172

AP1G1 isoform 2 (UniProt O43747)
inactive: [1] -0.001 | [2] 0.007 | [3] 0.008 | [4] 0.001 | [5] -0.036

ALMS1 (UniProt Q8TCU4)
inactive: [1] -0.038 | [2] -0.004 | [3] 0.025 | [4] -0.033 | [5] -0.008

ALAD (UniProt P13716)
inactive: [1] 0.043 | [2] -0.016 | [3] 0.024 | [4] -0.042 | [5] -0.028

AMZ2 (UniProt Q86W34)
inactive: [1] 0.067 | [2] 0.059 | [3] 0.123 | [4] -0.056

ANKFY1 isoform 4 (UniProt Q9P2R3)
inactive: [1] -0.054 | [2] 0.024 | [3] -0.02 | [4] 0.011 | [5] 0.049

ANP32A (UniProt P39687)
inactive: [1] 0.007 | [2] 0.02 | [3] 0 | [4] 0.07 | [5] -0.033

AP1B1 isoform 3 (UniProt Q10567)
inactive: [1] 0.295 | [2] -0.089

AP1M1 (UniProt Q9BXS5)
inactive: [1] -0.007 | [2] -0.005 | [3] -0.014 | [4] -0.031 | [5] -0.018

ALDH9A1 (UniProt P49189)
inactive: [1] 0.036 | [2] -0.057 | [3] -0.109 | [4] 0.061

ALDH1B1 (UniProt P30837)
inactive: [1] 0.143 | [2] -0.021 | [3] 0.006 | [4] 0.049 | [5] 0.019

AP4B1 (UniProt Q9Y6B7)
inactive: [1] 0.02 | [2] 0.063 | [3] -0.025 | [4] 0.093 | [5] 0.03

ANPEP (UniProt P15144)
inactive: [1] 0.017 | [2] 0.02 | [3] -0.04 | [4] -0.045 | [5] -0.106

AP2S1 (UniProt P53680)
inactive: [1] -0.013 | [2] 0.017 | [3] 0.026 | [4] 0.022 | [5] 0.026

ALKBH8 isoform 4 (UniProt Q96BT7)
inactive: [1] -0.024 | [2] 0 | [3] 0.025 | [4] 0.071 | [5] -0.013

ANKRD54 (UniProt Q6NXT1)
inactive: [1] 0.011 | [2] -0.04 | [3] 0.038 | [4] -0.042 | [5] -0.024

ANLN (UniProt Q9NQW6)
inactive: [1] 0.04 | [2] -0.014 | [3] 0.053 | [4] 0.015 | [5] 0.005

AMMECR1 (UniProt Q9Y4X0)
inactive: [1] -0.014 | [2] 0.019 | [3] 0.064 | [4] -0.007 | [5] 0.036

AKT2 (UniProt P31751)
inactive: [1] 0.011 | [2] 0.003 | [3] 0.031 | [4] 0.02 | [5] 0.028

ANXA6 (UniProt P08133)
inactive: [1] -0.03 | [2] 0.02 | [3] 0.013 | [4] 0.02 | [5] -0.03

AKT1 (UniProt P31749)
inactive: [1] 0.011 | [2] -0.028 | [3] -0.028 | [4] -0.009 | [5] 0.013

ANXA13 isoform 2 (UniProt P27216)
inactive: [1] 0.058 | [2] -0.041 | [3] -0.048 | [4] 0.17 | [5] 0.011

ALDH1A1 (UniProt P00352)
inactive: [1] -0.032 | [2] 0.006 | [3] -0.028 | [4] -0.011 | [5] 0.045

ALDH9A1 isoform 3 (UniProt P49189)
inactive: [1] 0.028 | [2] -0.014 | [3] -0.015 | [4] 0.017 | [5] 0.056

ANAPC5 (UniProt Q9UJX4)
inactive: [1] -0.003 | [2] 0.022 | [3] 0.011 | [4] -0.009 | [5] 0.005

ANAPC4 isoform 3 (UniProt Q9UJX5)
inactive: [1] 0.039 | [2] 0.007 | [3] 0.015 | [4] -0.026 | [5] -0.036

AP2M1 (UniProt Q96CW1)
inactive: [1] -0.004 | [2] -0.009 | [3] 0 | [4] -0.006 | [5] -0.011

ALG12 (UniProt Q9BV10)
inactive: [1] 0.066 | [2] -0.22 | [3] 0.093 | [4] -0.064 | [5] -0.042

ANAPC2 (UniProt Q9UJX6)
inactive: [1] 0.009 | [2] -0.011 | [3] 0.026 | [4] -0.03 | [5] 0.004

ANKRD40 (UniProt Q6AI12)
inactive: [1] 0.133 | [2] 0.072 | [3] 0.536 | [4] -0.156 | [5] 0.053

AP3B1 (UniProt O00203)
inactive: [1] 0.031 | [2] 0.006 | [3] -0.006 | [4] 0.048 | [5] 0.035

AP3B2 isoform 4 (UniProt Q13367)
inactive: [1] -0.007 | [2] 0.027 | [3] -0.024 | [4] 0.057 | [5] 0.023

ANKRD17 (UniProt O75179)
inactive: [1] -0.037 | [2] -0.005 | [3] 0.028 | [4] 0.022 | [5] -0.014

ANKRD30B (UniProt Q9BXX2)
inactive: [1] -0.098 | [2] 0.112 | [3] 0.042 | [4] -0.125 | [5] -0.407

Reference: the supplement of paper PMC10849652
